Measured values from article PMC5342562.

Amino acid sequences for entries named in this document (tags omitted).
UniProt P08515, whole entry: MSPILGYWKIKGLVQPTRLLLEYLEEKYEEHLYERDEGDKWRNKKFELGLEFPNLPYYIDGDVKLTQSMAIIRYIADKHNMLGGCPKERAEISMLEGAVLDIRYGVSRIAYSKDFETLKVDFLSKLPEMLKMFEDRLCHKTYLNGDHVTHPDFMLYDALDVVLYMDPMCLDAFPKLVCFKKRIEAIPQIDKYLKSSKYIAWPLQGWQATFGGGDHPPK

Assays:
[1] = biological target: T1, GST-ZNF32 (human) (UniProt P17041); assay: competition with a labelled probe; conditions: 200-fold excess unlabeled probe attenuates the N1 complex; LightShift Chemiluminescent EMSA kit reaction buffer (composition and pH not given), 2 nM biotin probe, 20 min at room temperature; 5% native gel in 0.5x TBE; recombinant protein; residues 1-273; protein details: GST (N-terminal, pGEX-5X-3)
T1 sequence (looked up): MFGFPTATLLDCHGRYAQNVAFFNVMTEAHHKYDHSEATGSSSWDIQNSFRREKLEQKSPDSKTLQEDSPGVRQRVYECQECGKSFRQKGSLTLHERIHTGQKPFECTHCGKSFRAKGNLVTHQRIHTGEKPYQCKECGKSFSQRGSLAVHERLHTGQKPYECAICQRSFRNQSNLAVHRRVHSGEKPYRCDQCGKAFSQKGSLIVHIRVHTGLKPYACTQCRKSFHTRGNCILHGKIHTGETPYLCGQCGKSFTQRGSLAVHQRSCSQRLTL

[2] = biological target: GST (control) (UniProt P08515); assay: EMSA; conditions: LightShift Chemiluminescent EMSA kit reaction buffer (composition and pH not given), 2 nM biotin probe, 20 min at room temperature; 5% native gel in 0.5x TBE; recombinant protein; protein details: GST; label: 5'-biotin
[3] = biological target: T1, GST-ZNF32 (human); assay: EMSA; conditions: 2 ug GST-ZNF32, 2 nM probe; LightShift Chemiluminescent EMSA kit reaction buffer (composition and pH not given), 2 nM biotin probe, 20 min at room temperature; 5% native gel in 0.5x TBE; recombinant protein; residues 1-273; protein details: GST (N-terminal, pGEX-5X-3); label: 5'-biotin
[4] = biological target: T2, ZNF32 overexpressed (LV6-ZNF32) in BE(2)-C nuclear extract (UniProt P17041); assay: EMSA; conditions: 10 ug nuclear extract, complex increased by ZNF32 overexpression, decreased in ZNF32-silenced (lv-ZNF32) cells; LightShift Chemiluminescent EMSA kit reaction buffer (composition and pH not given), 2 nM biotin probe, 20 min at room temperature; 5% native gel in 0.5x TBE; protein in an extract; label: 5'-biotin
T2 sequence (looked up, limits assumed): T1 sequence (looked up)

| Sequence | binding result [1] | binding result [2] | binding result [3] | binding result [4] |
| --- | --- | --- | --- | --- |
| TTTGTAGTCAAGTGCATTTTAGCCACAAAGAT (double strand) [SOX2 promoter competitor (unlabeled probe)] | binds | – | – | – |
| TTTGTAGTCAAGTGCATTTTAGCCACAAAGAT (double strand) [SOX2 promoter probe] | – | no binding | binds | binds |

Construct, isoform or probe ends are uncertain for at least one entry. For some of these results: A negative result means that nothing was seen under these conditions. For some of these results: At least one result comes from cells or an extract, where the contact may be indirect. For some of these results: Tags and fusion partners may be left off the protein sequences shown.
